Our source for the binding values is patent US20240374644A1.

No constants are given. Whether binding was seen depends on the method and setting. Some binding calls cover weakened binding; strength is not graded here.

The assay has as its target T1, ERVK6 HERV-K Env surface protein (human) (UniProt Q69384).
T1 sequence (looked up): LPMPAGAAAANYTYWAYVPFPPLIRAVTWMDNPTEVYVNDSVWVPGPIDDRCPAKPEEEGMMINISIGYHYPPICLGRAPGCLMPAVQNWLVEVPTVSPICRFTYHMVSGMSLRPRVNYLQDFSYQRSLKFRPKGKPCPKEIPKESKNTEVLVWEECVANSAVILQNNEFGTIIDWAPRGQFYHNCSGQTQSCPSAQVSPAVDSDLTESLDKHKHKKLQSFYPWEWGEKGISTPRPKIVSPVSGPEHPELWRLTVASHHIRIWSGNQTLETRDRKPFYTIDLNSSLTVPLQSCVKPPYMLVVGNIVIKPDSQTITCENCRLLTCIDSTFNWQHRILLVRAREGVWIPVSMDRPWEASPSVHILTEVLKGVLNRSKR
The experiment in a line: immunoblot. For orientation: In western blotting, separated proteins are transferred to a membrane and probed.

B1: m6H5 murine anti-HERV-K monoclonal antibody (antibody, V domains shown)
VH: QVKLQQSGPDLVKPGASVKISCKASGYSFTGYYMHWVKQSHGKSLEWIGRVNPNSGGTSYNQKFKDKAILTVDKSSSTAYMELRSLTSEDSAVYYCARSKGNYFYAMDYWGQGTTVTVSS
VL: DIELTQSPASLAVSLGQRATISCRASESVDSHGTSFMHWYQQKPGQPPKFLIYRASNLESGIPARFSGSGSRTDFTLTINPVETDDVAIYYCQQSNEDPPTFGGGTKLEIK
Consider B1, for which the binding result is listed as “binds”.
